Source: US9328334B2, “Luciferase derived from lucidina accensa” (OLYMPUS CORPORATION, priority 2011, dated 2016)

Assays:
[1] = Measurement of light emission spectra of purified luciferase under various pH environments; format: biochemical
Protocol: With use of LumiFlSpectroCapture (manufactured by ATTO Corporation) as an apparatus for measurement, to a solution of 0.1 M citric acid/0.1 M Na2HPO4 buffer (pH 5.5 to 8.0) containing 1 mM of D-luciferin, 2 mM of ATP and 4 mM of MgCl2 the purified enzyme was added at a final concentration of 1 μg/mL, and after 15 seconds of addition of the enzyme luminescence spectra was measured. The measurement results were illustrated in FIG. 1.
After that, each of thus-prepared genes (SEQ ID NOs: 38 and 39) was introduced into pRSET-B vector according to the same method as the Example 2. This vector was transformed to E. coli JM109 (DE3) strain to express the mutant luciferase. Subsequently, the mutant luciferase was purified from E. coli. In addition, under various pH environments, the light emission spectrum was measured according to the same method as the Example 2 from a light emitting reaction catalyzed by the mutant luciferase.

[2] = tested on: E. coli JM109 (DE3) strain; assay: Temperature dependency of luminescence intensity: E. coli colonies heat treated at 55° C., CCD image (Example 7); format: cell-based, Escherichia coli; settings: 55° C. for 1 hour, 0.5 mM D-luciferin spray
Protocol: Each of the wild type luciferase gene and two kinds of the mutant gene obtained in the Example 6 was introduced into pRSET-B vector and transformed to E. coli JM109 (DE3) strain to form a colony. Thus-obtained colony was cultured and applied on a LB agar medium to form again the colony for 24 hours. After that, it was subjected to the heat treatment at 55° C. for 1 hour and kept at room temperature for 1 hour. It was then sprayed with a liquid containing 0.5 mM D-luciferin and a photographic image thereof was taken for 1 min by using a CCD camera (trade name: DP70, manufactured by Olympus Corporation).

| Molecule | maximum luminescent wavelength ([1]; pH 5.5) | maximum luminescent wavelength ([1]; pH 6.0) | color of light emission in color photographic image [2] | maximum luminescent wavelength ([1]; pH 7.4) | maximum luminescent wavelength ([1]; pH 8.0, 1 mM D-luciferin, 2 mM ATP, 4 mM MgCl2, enzyme 1 μg/mL) |
| --- | --- | --- | --- | --- | --- |
| wild type luciferase: wild type luciferase obtained from Lucidina accensa, amino acid sequence SEQ ID NO: 1 (protein, listed as Lucidina accensa) MEEDKNILRGPAPFYPLEDGTAGEQLHRAMKRYALIPGTIAFTDAHAGVNITYSEYFEMACRLAESLKRYGLGLQHRIVVCSENSLQFFMPVVGALFIGVGVAPANDIYNERELLNSMTISQPTLVFCSRKGLQKILNVQKKLPVIQKIIILDTKEDYMGFQSMYSFVDSQLPVGFNEYDYVPDSFDRDQATALIMNSSGSTGLPKGVELNHTSVCVRFSHCRDPVYGNQIIPDTAILSVIPFHHGFGMFTTLGYLICGFRVVLMYRFEEELFLRSLQDYKIQSALLVPTLFSFFAKSTLIDKYDLSNLHEIASGGAPLAKEVGEAVAKRFNLRGIRQGYGLTETTSAVIITPEGDDKPGAVGKVVPFFSAKVVDLDTGKTLGVNQRGELCLKGPMIMKGYVNNPEATNALIDKDGWLHSGDISYWDEDGHFFIVDRLKSLIKYKGYQVPPAELESILLQHPFIFDAGVAGIPDDEAGELPAAVVVLEEGKTMTEKEIMDYVAGQVTTAKRLRGGVVFVDEVPKGLTGKIDARKIREILVKVKKTKSKL | approximately 616 nm | approximately 614 nm | yellow color with a hint of orange; also recorded: yellow color with a hint or orange | – | – |
| mutant luciferase (F294Y, V323L, and E354V): L. accensa luciferase mutant with F294Y, V323L and E354V, amino acid sequence SEQ ID NO: 34 (protein, listed as Lucidina accensa) MEEDKNILRGPAPFYPLEDGTAGEQLHRAMKRYALIPGTIAFTDAHAGVNITYSEYFEMACRLAESLKRYGLGLQHRIVVCSENSLQFFMPVVGALFIGVGVAPANDIYNERELLNSMTISQPTLVFCSRKGLQKILNVQKKLPVIQKIIILDTKEDYMGFQSMYSFVDSQLPVGFNEYDYVPDSFDRDQATALIMNSSGSTGLPKGVELNHTSVCVRFSHCRDPVYGNQIIPDTAILSVIPFHHGFGMFTTLGYLICGFRVVLMYRFEEELFLRSLQDYKIQSALLVPTLFSYFAKSTLIDKYDLSNLHEIASGGAPLAKELGEAVAKRFNLRGIRQGYGLTETTSAVIITPVGDDKPGAVGKVVPFFSAKVVDLDTGKTLGVNQRGELCLKGPMIMKGYVNNPEATNALIDKDGWLHSGDISYWDEDGHFFIVDRLKSLIKYKGYQVPPAELESILLQHPFIFDAGVAGIPDDEAGELPAAVVVLEEGKTMTEKEIMDYVAGQVTTAKRLRGGVVFVDEVPKGLTGKIDARKIREILVKVKKTKSKL | – | – | red color | ~615 nm | – |
| mutant luciferase (E322W): L. accensa luciferase mutant with E322W, amino acid sequence SEQ ID NO: 36 (protein, listed as Lucidina accensa) MEEDKNILRGPAPFYPLEDGTAGEQLHRAMKRYALIPGTIAFTDAHAGVNITYSEYFEMACRLAESLKRYGLGLQHRIVVCSENSLQFFMPVVGALFIGVGVAPANDIYNERELLNSMTISQPTLVFCSRKGLQKILNVQKKLPVIQKIIILDTKEDYMGFQSMYSFVDSQLPVGFNEYDYVPDSFDRDQATALIMNSSGSTGLPKGVELNHTSVCVRFSHCRDPVYGNQIIPDTAILSVIPFHHGFGMFTTLGYLICGFRVVLMYRFEEELFLRSLQDYKIQSALLVPTLFSFFAKSTLIDKYDLSNLHEIASGGAPLAKWVGEAVAKRFNLRGIRQGYGLTETTSAVIITPEGDDKPGAVGKVVPFFSAKVVDLDTGKTLGVNQRGELCLKGPMIMKGYVNNPEATNALIDKDGWLHSGDISYWDEDGHFFIVDRLKSLIKYKGYQVPPAELESILLQHPFIFDAGVAGIPDDEAGELPAAVVVLEEGKTMTEKEIMDYVAGQVTTAKRLRGGVVFVDEVPKGLTGKIDARKIREILVKVKKTKSKL | – | – | yellowish green color | – | ~557 nm |

Entries after “also recorded” stand apart in the source; their conditions may differ.
